PubChem BioAssay AID504791 – Drosophila RNAi Screening Center | 2011
The screen tested about 23,000 reagents; below is an unselected part of those with a known target gene and a result. Over the whole deposit, 199 (0.86%) are marked active. 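Plate-scaled ratios behind the calls are not deposited; printed light signals are raw; many rows marked increased or decreased are still called inactive.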 A plus sign joins genes that one reagent is predicted to hit. No sequences are given here. The record does not give: the direction of the score.

Assay: 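Genes of the fly required for silencing by miRNA, siRNA or endo-siRNA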 (primary screen)
Cells: Drosophila S2-derived reporter cells
Reagent: long dsRNA against Drosophila genes, about 150-250 ng dsRNA per well (siRNA assay); about 80-120 ng (miRNA assay)
Time to read-out: about 5 days (siRNA assay); about 4 days (miRNA assay)
Challenge: copper sulfate induction of reporters: 25 µM (siRNA assay); 200 mM stated (miRNA assay), 1-2 days before reading
Detection: 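Dual luciferase assay: Renilla to firefly signal ratio in each well, scaled to the mean ratio of its plate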
Hit rule: 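First-pass picks had plate-scaled ratios over 1.5 for the siRNA assay, over 1.6 for the miRNA assay, or under 0.6; two distinct dsRNAs had to score alike on retest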

{"Gene": "p130CAS + Dic61B", "dsRNA": "DRSC08588", "stable assay Renilla, run 1 (luminescence)": 12584, "stable assay firefly, run 1 (luminescence)": 4.29e5, "Outcome": "inactive"}
{"Gene": "Prx2 (Peroxiredoxin 2)", "dsRNA": "DRSC20256", "stable assay Renilla, run 1 (luminescence)": 4864, "stable assay firefly, run 1 (luminescence)": 3.15e5, "Outcome": "inactive"}
{"Gene": "Cpr47Ec (Cuticular protein 47Ec)", "dsRNA": "DRSC07332", "stable assay Renilla, run 1 (luminescence)": 6594, "stable assay firefly, run 1 (luminescence)": 4.75e5, "Outcome": "inactive"}
{"Gene": "CG12895", "dsRNA": "DRSC06210", "stable assay Renilla, run 1 (luminescence)": 6675, "stable assay firefly, run 1 (luminescence)": 3.83e5, "Outcome": "inactive"}
{"Gene": "CG17764", "dsRNA": "DRSC18135", "stable assay Renilla, run 1 (luminescence)": 5416, "stable assay firefly, run 1 (luminescence)": 2.27e5, "Outcome": "inactive"}
{"Gene": "CG17764", "dsRNA": "DRSC23055", "stable assay Renilla, run 1 (luminescence)": 4323, "stable assay firefly, run 1 (luminescence)": 3.07e5, "Outcome": "inactive"}
{"Gene": "CG31872", "dsRNA": "DRSC02568", "stable assay Renilla, run 1 (luminescence)": 6610, "stable assay firefly, run 1 (luminescence)": 4.66e5, "Outcome": "inactive"}
{"Gene": "CG31872", "dsRNA": "DRSC02572", "stable assay Renilla, run 1 (luminescence)": 6135, "stable assay firefly, run 1 (luminescence)": 3.75e5, "Outcome": "inactive"}
{"Gene": "CG7381", "dsRNA": "DRSC16238", "stable assay Renilla, run 1 (luminescence)": 9035, "stable assay firefly, run 1 (luminescence)": 5.12e5, "Outcome": "inactive"}
{"Gene": "ewg (erect wing)", "dsRNA": "DRSC18773", "stable assay Renilla, run 1 (luminescence)": 4272, "stable assay firefly, run 1 (luminescence)": 4.28e5, "Outcome": "inactive"}
{"Gene": "CG15525", "dsRNA": "DRSC15062", "stable assay Renilla, run 1 (luminescence)": 1336, "stable assay firefly, run 1 (luminescence)": 63452, "Outcome": "inactive"}
{"Gene": "CG10550", "dsRNA": "DRSC14251", "stable assay Renilla, run 1 (luminescence)": 7649, "stable assay firefly, run 1 (luminescence)": 4.49e5, "Outcome": "inactive"}
{"Gene": "TORIP (Torsin interacting protein)", "dsRNA": "DRSC10104", "stable assay Renilla, run 1 (luminescence)": 8690, "stable assay firefly, run 1 (luminescence)": 3.52e5, "Outcome": "inactive"}
{"Gene": "AOX1 (Aldehyde oxidase 1)", "dsRNA": "DRSC15339", "stable assay Renilla, run 1 (luminescence)": 8313, "stable assay firefly, run 1 (luminescence)": 4.99e5, "Outcome": "inactive"}
{"Gene": "CG6426", "dsRNA": "DRSC06985", "stable assay Renilla, run 1 (luminescence)": 6667, "stable assay firefly, run 1 (luminescence)": 4.49e5, "Outcome": "inactive"}
{"Gene": "qvr (quiver)", "dsRNA": "DRSC05280", "stable assay Renilla, run 1 (luminescence)": 5870, "stable assay firefly, run 1 (luminescence)": 3.47e5, "Outcome": "inactive"}
{"Gene": "CG7296", "dsRNA": "DRSC03042", "stable assay Renilla, run 1 (luminescence)": 5915, "stable assay firefly, run 1 (luminescence)": 5.03e5, "Outcome": "inactive"}
{"Gene": "CG7296", "dsRNA": "DRSC22343", "stable assay Renilla, run 1 (luminescence)": 9402, "stable assay firefly, run 1 (luminescence)": 5.66e5, "Outcome": "inactive"}
{"Gene": "FANCI (Fanconi anemia complementation group I)", "dsRNA": "DRSC06416", "stable assay Renilla, run 1 (luminescence)": 6400, "stable assay firefly, run 1 (luminescence)": 3.98e5, "Outcome": "inactive"}
{"Gene": "boss (bride of sevenless)", "dsRNA": "DRSC16916", "stable assay Renilla, run 1 (luminescence)": 6551, "stable assay firefly, run 1 (luminescence)": 3.28e5, "Outcome": "inactive"}
{"Gene": "Ubx (Ultrabithorax)", "dsRNA": "DRSC16891", "stable assay Renilla, run 1 (luminescence)": 3027, "stable assay firefly, run 1 (luminescence)": 3.05e5, "Outcome": "inactive"}
{"Gene": "trv (trivet)", "dsRNA": "DRSC13846", "stable assay Renilla, run 1 (luminescence)": 3635, "stable assay firefly, run 1 (luminescence)": 3.09e5, "Outcome": "inactive"}
{"Gene": "trv (trivet)", "dsRNA": "DRSC14559", "stable assay Renilla, run 1 (luminescence)": 5722, "stable assay firefly, run 1 (luminescence)": 3.60e5, "Outcome": "inactive"}
{"Gene": "trv (trivet)", "dsRNA": "DRSC14560", "stable assay Renilla, run 1 (luminescence)": 6726, "stable assay firefly, run 1 (luminescence)": 4.57e5, "Outcome": "inactive"}
{"Gene": "trv (trivet)", "dsRNA": "DRSC14561", "stable assay Renilla, run 1 (luminescence)": 6398, "stable assay firefly, run 1 (luminescence)": 3.79e5, "Outcome": "inactive"}
{"Gene": "CG9631", "dsRNA": "DRSC14137", "stable assay Renilla, run 1 (luminescence)": 7755, "stable assay firefly, run 1 (luminescence)": 4.58e5, "Outcome": "inactive"}
{"Gene": "Acp32CD (Accessory gland protein 32CD)", "dsRNA": "DRSC01858", "stable assay Renilla, run 1 (luminescence)": 7151, "stable assay firefly, run 1 (luminescence)": 3.84e5, "Outcome": "inactive"}
{"Gene": "Cpr30B (Cuticular protein 30B)", "dsRNA": "DRSC02728", "stable assay Renilla, run 1 (luminescence)": 9741, "stable assay firefly, run 1 (luminescence)": 4.26e5, "Outcome": "inactive"}

2 consecutive records from above, for reference:
{"Gene": "CG31872", "dsRNA": "DRSC02568", "stable assay Renilla, run 1 (luminescence)": 6610, "stable assay firefly, run 1 (luminescence)": 4.66e5, "Outcome": "inactive"}
{"Gene": "CG31872", "dsRNA": "DRSC02572", "stable assay Renilla, run 1 (luminescence)": 6135, "stable assay firefly, run 1 (luminescence)": 3.75e5, "Outcome": "inactive"}
